Results on one compound are retold here after patent US9409879B2, “Total synthesis of redox-active 1.4-naphthoquinones and their metabolites and their therapeutic use as antimalarial and schistomicidal agents” (CENTRE NATIONAL DE LA RECHERCHE SCIENTIFIQUE, priority 2011, dated 2016).

The assay has as its system P. falciparum strain Dd2. Nature of the assay: 3H-hypoxanthine incorporation antiproliferation assay, P. falciparum Dd2. It is filed as cell-based. Particulars: Plasmodium falciparum. As to the method:
Infected erythrocytes in ring stage (0.5% parasitemia, 2.5% hematocrit) in 96-well plates were exposed to the compounds for 48 h and then to radioactive hypoxanthine for 24 h. The amount of radioactivity in precipitable material served as an index of cell proliferation.

The term IC50 denotes the concentration that inhibits the measured activity by half. Low values mean greater potency, high ones weaker potency.

Consider `CCN(CC)CCCC(C)Nc1ccnc2cc(Cl)ccc12` (stereo not shown) [Chloroquine, reference compound], for which the IC50 is 110 nM.
